Data source: PubChem BioAssay AID504784 (Drosophila RNAi Screening Center, 2011)
The screen tested about 17,000 reagents; shown is a random part of those that have a named target and a result. 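Each column is one replicate's B-score; the combined score over replicates was not deposited, so single values may mislead.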 The numbers tell different reagents against one gene apart. A plus sign joins genes that one reagent is predicted to hit.

Screen: 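Genome-wide knock-down for genes giving too much or too little stored lipid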 (primary screen)
Cell system: Drosophila Kc167 embryonic cells
Knock-down reagent: long dsRNA against Drosophila genes, about 250 ng dsRNA per well
Duration: 4 days
Challenge: cells fed 400 µM oleic acid bound to BSA
Measurement: 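Microscope images give a droplet-to-nucleus area ratio, taken as log and converted to a screen-wide B-score; higher values mean greater lipid storage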
Reading the numbers: droplet/nuclear area B-score: higher = more stored lipid (overstorage)

| Gene | reagent no. | droplet/nuclear area B-score, replicate 1 | droplet/nuclear area B-score, replicate 2 | droplet/nuclear area B-score, replicate 3 |
| --- | --- | --- | --- | --- |
| CG5302 (retired record) | 1 | 0.00134 | 0.461 | – |
| CG5302 (retired record) | 2 | -0.809 | 0.239 | – |
| CG5302 (retired record) | 3 | -0.455 | -0.366 | – |
| Ste:CG33238 + Ste:CG33241 + Ste:CG33236 + 11 more | 1 | 0.154 | -1.32 | – |
| Ste:CG33238 + Ste:CG33241 + Ste:CG33236 + 11 more | 2 | -0.0141 | 0.243 | – |
| Syx4 (Syntaxin 4) | 1 | 0.739 | 0.385 | – |
| CG31278 | 1 | 0.687 | -0.321 | – |
| CoRest | 1 | -0.0093 | 1.35 | – |
| CoRest | 2 | -0.459 | -0.667 | – |
| CoRest | 3 | 7.86 | 1.71 | – |
| LTV1 (LTV1 ribosome biogenesis factor) | 1 | 0.49 | 0.273 | – |
| Hip14 (Huntingtin-interacting protein 14) | 1 | -1.07 | 1.96 | 2.09 |
| Ctns (Cystinosin) | 1 | -0.324 | -1.21 | – |
| CG1418 | 1 | 0.262 | 0.725 | – |
| CG14298 | 1 | -2.11 | 2.5 | – |
| CG8249 | 1 | -1.47 | 0.422 | – |
| Rpt6 (Regulatory particle triple-A ATPase 6) | 1 | -0.325 | 0.35 | – |
| cuff (cutoff) | 1 | 0.661 | 1.62 | – |
| CG31817 | 1 | -1.06 | -0.366 | – |
| CG31817 | 2 | -2.59 | 1.11 | – |
| CG31817 | 3 | -0.116 | 0.315 | – |
| Mlp84B (Muscle LIM protein at 84B) | 1 | 0.416 | 1.97 | – |
| E(spl)m2-BFM (Enhancer of split m2, Bearded family member) | 1 | – | 0.808 | – |
| E(spl)m2-BFM (Enhancer of split m2, Bearded family member) | 2 | -0.391 | -0.108 | – |
| CG14647 | 1 | 0.11 | 0.197 | 2.14 |
| CG14647 | 2 | 0.133 | 0.35 | – |
| CG17195 | 1 | 0.418 | 0.311 | – |
| PDZ-GEF (PDZ domain-containing guanine nucleotide exchange factor) | 1 | -1.59 | 0.788 | – |
| CG30151 | 1 | 1.31 | -2.39 | – |
| Adk2 (Adenosine kinase 2) | 1 | 0.345 | -1.08 | – |
| Blimp-1 | 1 | -0.00516 | -1.31 | – |
| Vha16-1 (Vacuolar H[+] ATPase 16kD subunit 1) | 1 | -1.87 | -0.379 | – |
| Spn42Dc (Serpin 42Dc) | 1 | 0.532 | 0.0857 | – |
| Roe1 | 1 | 0.0481 | 0.935 | – |
| CG6293 | 1 | -0.0591 | 1.2 | – |
| Ino80 (INO80 complex subunit) | 1 | -1.16 | 0.901 | – |
| Ino80 (INO80 complex subunit) | 2 | -1.68 | -0.375 | – |
| Ino80 (INO80 complex subunit) | 3 | -0.152 | -0.832 | – |
| Ugt303B3 (UDP-glycosyltransferase family 303 member B3) | 1 | 2.54 | 0.126 | – |
| Mink (Mitotic spindle and nuclear protein) | 1 | 2.19 | 0.111 | – |
| spz (spatzle) | 1 | 0.632 | 5.21 | – |
| jing | 1 | 0.0414 | 0.109 | – |
| jing | 2 | -1.21 | -0.395 | – |
| Hpf1 (Histone PARylation factor 1) | 1 | 0.201 | -0.309 | – |
| Mrgn1 (Mahogunin ring finger 1) | 1 | 0.391 | 0.524 | -0.559 |
| slam (slow as molasses) | 1 | 0.331 | 0.746 | – |
| CG5023 | 1 | 0.377 | 0.82 | – |
| Wnt6 (Wnt oncogene analog 6) | 1 | -0.121 | -1.61 | – |
| ste24a (prenyl protease type I) | 1 | -1.79 | – | – |
| CG8360 | 1 | 1.26 | -0.949 | -1.03 |
| Sumo (Small ubiquitin like modifier) | 1 | 4.33 | 1.02 | – |
| Pex3 (Peroxin 3) | 1 | -0.865 | -0.803 | 1.06 |
| Mpcp2 | 1 | 1.87 | -0.603 | – |
| jet (jetlag) | 1 | -0.0745 | -0.459 | – |
| CG13627 | 1 | 1.12 | 0.00156 | – |
| CG6428 | 1 | -0.434 | -0.643 | – |
| CG4860 | 1 | -0.291 | -0.479 | -0.099 |
| CG4860 | 2 | -1.16 | -0.348 | – |
| Culd (CUB and LDLa domain) | 1 | 0.206 | -0.322 | – |
| CG8155 | 1 | 0.199 | -0.0807 | – |
| CG8155 | 2 | -0.353 | -0.0165 | – |
| Rh50 | 1 | -1.08 | 0.603 | – |
| CG5608 | 1 | 0.191 | -0.429 | – |
| emb (embargoed) | 1 | 0.229 | -0.86 | – |
| Nlg4 (Neuroligin 4) | 1 | -1.03 | 0.823 | – |
| Nlg4 (Neuroligin 4) | 2 | -0.0361 | 0.144 | – |
| Nlg4 (Neuroligin 4) | 3 | -1.11 | -1.06 | – |
| Nlg4 (Neuroligin 4) | 4 | 0.167 | -1.37 | – |
| Nlg4 (Neuroligin 4) | 5 | 0.937 | 0.0391 | – |
| CG32091 | 1 | 1.17 | 1.51 | – |
| CG32091 | 2 | -0.177 | -0.168 | – |
| Dark (Death-associated APAF1-related killer) | 1 | -1.33 | 0.0009 | – |
| CG4872 | 1 | -2.17 | -0.656 | – |
| His4:CG33883 + His4:CG33889 + His4:CG33899 + 20 more | 1 | 1.72 | 1.26 | – |
| CG5909 | 1 | -0.248 | 1.55 | – |
| shot (short stop) | 1 | 0.586 | 2.76 | – |
| shot (short stop) | 2 | -2.55 | -0.92 | – |
| shot (short stop) | 3 | 0.286 | 0.275 | – |
| CG3594 | 1 | 1.21 | 0.898 | – |
| CG3594 | 2 | 0.00197 | -0.46 | – |
| Cht7 (Chitinase 7) | 1 | -0.604 | -1.04 | – |
| Cht7 (Chitinase 7) | 2 | -1.08 | 0.985 | – |
| Mtl (Mig-2-like) | 1 | -0.196 | 0.172 | – |

Sorted by “droplet/nuclear area B-score, replicate 2” (descending): some entries from above.
| Gene | reagent no. | droplet/nuclear area B-score, replicate 1 | droplet/nuclear area B-score, replicate 2 | droplet/nuclear area B-score, replicate 3 |
| --- | --- | --- | --- | --- |
| CoRest | 3 | 7.86 | 1.71 | – |
| CoRest | 1 | -0.0093 | 1.35 | – |
| Syx4 (Syntaxin 4) | 1 | 0.739 | 0.385 | – |
| LTV1 (LTV1 ribosome biogenesis factor) | 1 | 0.49 | 0.273 | – |
| Ste:CG33238 + Ste:CG33241 + Ste:CG33236 + 11 more | 2 | -0.0141 | 0.243 | – |
| CG5302 (retired record) | 2 | -0.809 | 0.239 | – |
| CG31278 | 1 | 0.687 | -0.321 | – |
| CG5302 (retired record) | 3 | -0.455 | -0.366 | – |
| CoRest | 2 | -0.459 | -0.667 | – |
| Ste:CG33238 + Ste:CG33241 + Ste:CG33236 + 11 more | 1 | 0.154 | -1.32 | – |
